From the supplement of paper PMC6411743
± gives the standard deviation of the averaged measurements. The entries are a selection whose mix differs from that of the whole data set. Most values lie at the level of the controls, where differences are scatter.

Sequences of proteins named here, by UniProt entry; tags and fusion partners are left off. A change or cut given only in a name is not applied to a line headed by its entry.
UniProt O95155, whole entry: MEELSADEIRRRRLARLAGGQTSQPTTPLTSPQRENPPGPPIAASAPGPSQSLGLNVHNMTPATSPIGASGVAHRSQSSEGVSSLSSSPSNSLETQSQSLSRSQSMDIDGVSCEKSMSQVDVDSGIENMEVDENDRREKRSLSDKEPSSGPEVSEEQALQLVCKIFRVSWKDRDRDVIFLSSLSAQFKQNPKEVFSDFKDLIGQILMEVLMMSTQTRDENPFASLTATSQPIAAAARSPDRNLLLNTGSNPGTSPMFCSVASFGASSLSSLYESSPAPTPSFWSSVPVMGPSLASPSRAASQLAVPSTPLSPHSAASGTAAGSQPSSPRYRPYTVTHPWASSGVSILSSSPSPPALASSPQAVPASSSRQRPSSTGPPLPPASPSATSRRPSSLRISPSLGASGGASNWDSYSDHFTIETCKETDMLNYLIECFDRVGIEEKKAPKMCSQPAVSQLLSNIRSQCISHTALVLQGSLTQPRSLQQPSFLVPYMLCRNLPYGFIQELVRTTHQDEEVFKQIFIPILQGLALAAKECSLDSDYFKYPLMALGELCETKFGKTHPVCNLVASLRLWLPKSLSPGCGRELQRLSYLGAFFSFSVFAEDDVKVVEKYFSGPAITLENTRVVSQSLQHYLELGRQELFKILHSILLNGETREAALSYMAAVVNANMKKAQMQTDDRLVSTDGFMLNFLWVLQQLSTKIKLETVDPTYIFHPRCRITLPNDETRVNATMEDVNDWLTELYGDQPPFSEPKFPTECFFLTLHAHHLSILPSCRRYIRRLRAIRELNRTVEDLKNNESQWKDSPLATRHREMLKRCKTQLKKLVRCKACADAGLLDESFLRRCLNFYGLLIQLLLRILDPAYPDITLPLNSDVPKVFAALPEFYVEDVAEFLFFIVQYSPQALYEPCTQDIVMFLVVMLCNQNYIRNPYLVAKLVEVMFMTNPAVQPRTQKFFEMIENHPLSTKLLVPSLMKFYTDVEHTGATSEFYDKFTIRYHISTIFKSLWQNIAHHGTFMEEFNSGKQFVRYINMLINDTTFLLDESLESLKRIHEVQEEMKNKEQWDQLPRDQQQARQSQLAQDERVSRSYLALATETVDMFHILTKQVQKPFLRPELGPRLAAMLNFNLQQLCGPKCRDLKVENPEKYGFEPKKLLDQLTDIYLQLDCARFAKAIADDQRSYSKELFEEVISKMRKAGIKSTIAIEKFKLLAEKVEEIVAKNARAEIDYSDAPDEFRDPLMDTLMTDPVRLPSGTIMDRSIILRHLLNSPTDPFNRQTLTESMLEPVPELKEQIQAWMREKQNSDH
UniProt O95149, whole entry: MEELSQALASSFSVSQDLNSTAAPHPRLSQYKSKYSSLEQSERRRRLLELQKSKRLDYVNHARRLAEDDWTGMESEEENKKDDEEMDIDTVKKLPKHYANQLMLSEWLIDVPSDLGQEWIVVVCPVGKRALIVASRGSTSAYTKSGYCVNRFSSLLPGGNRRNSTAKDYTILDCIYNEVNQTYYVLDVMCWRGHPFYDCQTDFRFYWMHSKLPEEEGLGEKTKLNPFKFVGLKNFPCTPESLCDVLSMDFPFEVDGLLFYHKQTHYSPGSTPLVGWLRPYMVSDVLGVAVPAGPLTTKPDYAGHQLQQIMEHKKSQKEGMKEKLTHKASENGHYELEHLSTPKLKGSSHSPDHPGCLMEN
UniProt O76095: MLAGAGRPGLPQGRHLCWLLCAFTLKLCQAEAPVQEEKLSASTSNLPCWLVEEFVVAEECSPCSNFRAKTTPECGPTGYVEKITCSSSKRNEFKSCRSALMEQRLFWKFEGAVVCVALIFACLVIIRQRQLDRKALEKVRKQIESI
UniProt O95568: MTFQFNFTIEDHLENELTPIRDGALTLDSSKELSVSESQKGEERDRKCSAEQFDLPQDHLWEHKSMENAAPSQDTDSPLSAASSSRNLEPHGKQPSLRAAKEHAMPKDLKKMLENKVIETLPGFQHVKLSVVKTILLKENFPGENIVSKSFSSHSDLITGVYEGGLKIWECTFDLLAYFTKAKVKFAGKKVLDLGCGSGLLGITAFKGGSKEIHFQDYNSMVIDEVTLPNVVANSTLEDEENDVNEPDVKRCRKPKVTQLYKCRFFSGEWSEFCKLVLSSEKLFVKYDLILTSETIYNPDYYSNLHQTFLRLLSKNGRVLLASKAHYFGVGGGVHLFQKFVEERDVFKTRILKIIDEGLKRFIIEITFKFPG
UniProt O60880: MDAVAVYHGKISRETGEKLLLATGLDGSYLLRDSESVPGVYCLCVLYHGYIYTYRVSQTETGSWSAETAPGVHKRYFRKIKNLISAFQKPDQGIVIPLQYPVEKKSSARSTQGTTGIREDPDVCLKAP
UniProt O95453: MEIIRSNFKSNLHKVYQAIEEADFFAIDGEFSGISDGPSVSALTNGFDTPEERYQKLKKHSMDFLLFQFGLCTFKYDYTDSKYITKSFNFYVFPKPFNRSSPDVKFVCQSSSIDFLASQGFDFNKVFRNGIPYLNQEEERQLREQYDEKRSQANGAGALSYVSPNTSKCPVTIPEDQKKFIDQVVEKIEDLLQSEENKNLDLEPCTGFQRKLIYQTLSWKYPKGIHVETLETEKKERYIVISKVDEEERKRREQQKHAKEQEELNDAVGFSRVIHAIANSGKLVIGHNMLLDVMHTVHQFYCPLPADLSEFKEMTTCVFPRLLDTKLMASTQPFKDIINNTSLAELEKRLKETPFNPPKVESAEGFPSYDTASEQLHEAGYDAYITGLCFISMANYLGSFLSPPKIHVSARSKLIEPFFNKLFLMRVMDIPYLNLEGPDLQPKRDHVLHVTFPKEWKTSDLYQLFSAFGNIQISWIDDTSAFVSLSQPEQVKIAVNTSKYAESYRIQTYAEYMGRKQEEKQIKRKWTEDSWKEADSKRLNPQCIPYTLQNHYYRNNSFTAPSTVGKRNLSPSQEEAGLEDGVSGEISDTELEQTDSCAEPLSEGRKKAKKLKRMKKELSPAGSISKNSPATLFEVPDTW
UniProt O95273: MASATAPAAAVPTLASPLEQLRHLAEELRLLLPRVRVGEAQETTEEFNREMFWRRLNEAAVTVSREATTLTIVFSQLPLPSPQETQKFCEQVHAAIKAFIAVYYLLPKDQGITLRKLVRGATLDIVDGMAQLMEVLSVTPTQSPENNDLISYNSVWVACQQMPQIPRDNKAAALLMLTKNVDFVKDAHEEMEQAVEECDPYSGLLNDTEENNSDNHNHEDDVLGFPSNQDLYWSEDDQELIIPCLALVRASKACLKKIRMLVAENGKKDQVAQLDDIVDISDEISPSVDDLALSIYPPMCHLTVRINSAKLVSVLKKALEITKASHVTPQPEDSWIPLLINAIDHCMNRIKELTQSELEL
UniProt O60749: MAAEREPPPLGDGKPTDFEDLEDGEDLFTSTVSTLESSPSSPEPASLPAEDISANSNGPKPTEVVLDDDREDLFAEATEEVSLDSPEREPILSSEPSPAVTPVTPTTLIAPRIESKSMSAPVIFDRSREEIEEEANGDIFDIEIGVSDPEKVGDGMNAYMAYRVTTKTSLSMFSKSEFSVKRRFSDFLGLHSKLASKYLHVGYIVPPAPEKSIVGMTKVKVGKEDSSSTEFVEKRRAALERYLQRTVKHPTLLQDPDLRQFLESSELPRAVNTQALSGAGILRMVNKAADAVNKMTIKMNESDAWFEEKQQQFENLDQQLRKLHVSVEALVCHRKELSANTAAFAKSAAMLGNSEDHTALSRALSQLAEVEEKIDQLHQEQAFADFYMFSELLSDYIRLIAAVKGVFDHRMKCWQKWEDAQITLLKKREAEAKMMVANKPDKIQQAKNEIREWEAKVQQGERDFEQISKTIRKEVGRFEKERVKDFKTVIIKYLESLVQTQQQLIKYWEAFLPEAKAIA
UniProt O75157: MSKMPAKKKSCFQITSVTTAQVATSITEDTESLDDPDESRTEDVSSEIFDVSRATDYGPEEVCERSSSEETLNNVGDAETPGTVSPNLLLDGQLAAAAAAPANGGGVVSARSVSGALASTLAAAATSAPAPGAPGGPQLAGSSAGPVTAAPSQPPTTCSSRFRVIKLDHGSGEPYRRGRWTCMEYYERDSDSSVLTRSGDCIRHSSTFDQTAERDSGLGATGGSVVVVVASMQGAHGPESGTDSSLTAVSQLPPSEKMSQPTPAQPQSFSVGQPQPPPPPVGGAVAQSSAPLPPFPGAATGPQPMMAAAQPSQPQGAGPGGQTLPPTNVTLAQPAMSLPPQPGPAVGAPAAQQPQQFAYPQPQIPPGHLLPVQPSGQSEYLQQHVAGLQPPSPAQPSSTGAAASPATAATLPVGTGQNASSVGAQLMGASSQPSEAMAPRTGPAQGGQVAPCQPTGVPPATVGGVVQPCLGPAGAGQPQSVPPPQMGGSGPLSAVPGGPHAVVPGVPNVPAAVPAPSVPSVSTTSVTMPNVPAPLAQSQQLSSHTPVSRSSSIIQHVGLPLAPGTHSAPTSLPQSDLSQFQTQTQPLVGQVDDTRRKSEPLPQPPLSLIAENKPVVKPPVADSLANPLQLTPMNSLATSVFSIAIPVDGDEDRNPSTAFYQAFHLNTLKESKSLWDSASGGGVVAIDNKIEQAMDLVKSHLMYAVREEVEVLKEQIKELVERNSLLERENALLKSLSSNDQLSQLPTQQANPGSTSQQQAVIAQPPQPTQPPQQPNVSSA
UniProt O60563, whole entry: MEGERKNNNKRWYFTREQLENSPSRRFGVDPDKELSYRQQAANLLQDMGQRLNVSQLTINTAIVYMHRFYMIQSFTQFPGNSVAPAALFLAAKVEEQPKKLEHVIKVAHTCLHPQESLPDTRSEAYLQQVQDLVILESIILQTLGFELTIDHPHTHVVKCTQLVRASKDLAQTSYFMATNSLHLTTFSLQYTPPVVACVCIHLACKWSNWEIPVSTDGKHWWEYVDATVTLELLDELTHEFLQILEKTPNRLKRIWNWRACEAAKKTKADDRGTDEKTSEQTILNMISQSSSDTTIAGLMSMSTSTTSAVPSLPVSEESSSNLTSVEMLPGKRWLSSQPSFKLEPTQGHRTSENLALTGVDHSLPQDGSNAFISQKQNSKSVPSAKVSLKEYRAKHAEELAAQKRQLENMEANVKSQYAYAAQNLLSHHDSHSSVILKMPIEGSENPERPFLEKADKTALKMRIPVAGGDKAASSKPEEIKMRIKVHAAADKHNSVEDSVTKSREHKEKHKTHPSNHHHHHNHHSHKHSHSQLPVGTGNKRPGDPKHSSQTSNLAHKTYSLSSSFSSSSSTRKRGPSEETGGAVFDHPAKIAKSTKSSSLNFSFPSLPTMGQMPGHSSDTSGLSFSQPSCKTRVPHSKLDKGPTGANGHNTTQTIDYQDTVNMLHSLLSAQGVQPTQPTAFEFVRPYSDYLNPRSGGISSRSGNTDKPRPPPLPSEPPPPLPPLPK
UniProt O75155: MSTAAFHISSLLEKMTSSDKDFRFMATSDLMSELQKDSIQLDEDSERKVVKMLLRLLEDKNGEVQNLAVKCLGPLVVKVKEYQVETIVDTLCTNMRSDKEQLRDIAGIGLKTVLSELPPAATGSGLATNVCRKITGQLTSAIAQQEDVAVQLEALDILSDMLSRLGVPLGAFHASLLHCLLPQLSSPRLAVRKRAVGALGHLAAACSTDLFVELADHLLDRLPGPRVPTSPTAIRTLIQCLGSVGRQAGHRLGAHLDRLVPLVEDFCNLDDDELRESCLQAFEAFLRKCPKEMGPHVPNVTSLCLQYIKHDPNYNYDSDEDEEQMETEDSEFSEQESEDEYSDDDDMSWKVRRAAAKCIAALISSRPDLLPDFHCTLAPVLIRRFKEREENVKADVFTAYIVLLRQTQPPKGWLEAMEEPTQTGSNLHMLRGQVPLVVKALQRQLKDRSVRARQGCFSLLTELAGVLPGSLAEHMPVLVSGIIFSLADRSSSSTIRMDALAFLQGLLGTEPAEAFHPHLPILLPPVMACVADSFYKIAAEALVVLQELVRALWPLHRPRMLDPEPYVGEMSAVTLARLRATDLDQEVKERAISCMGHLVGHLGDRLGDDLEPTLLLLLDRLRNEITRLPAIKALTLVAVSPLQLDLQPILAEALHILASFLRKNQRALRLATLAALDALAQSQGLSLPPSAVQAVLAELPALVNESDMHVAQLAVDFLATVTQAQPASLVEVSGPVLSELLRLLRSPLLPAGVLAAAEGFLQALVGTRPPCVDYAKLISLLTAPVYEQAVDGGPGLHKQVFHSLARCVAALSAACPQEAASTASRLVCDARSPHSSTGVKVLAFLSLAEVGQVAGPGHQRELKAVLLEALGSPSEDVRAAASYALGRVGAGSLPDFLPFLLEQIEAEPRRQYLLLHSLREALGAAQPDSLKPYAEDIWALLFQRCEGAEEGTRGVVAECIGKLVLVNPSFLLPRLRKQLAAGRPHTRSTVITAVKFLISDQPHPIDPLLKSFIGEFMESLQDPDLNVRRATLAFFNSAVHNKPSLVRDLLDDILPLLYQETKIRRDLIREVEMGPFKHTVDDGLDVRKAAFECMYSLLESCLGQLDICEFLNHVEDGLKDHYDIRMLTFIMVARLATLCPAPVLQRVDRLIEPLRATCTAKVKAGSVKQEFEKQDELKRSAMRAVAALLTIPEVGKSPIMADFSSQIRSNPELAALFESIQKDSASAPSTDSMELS

Compound: Nc1ncnc2c1ncn2[C@@H]1O[C@H](COP(=O)(O)OP(=O)(O)OP(=O)(O)O)[C@@H](O)[C@H]1O [adenosine triphosphate]
Assay: NP40-soluble protein abundance relative to vehicle (solubility fold change) (ratio); higher = more soluble protein in presence of ATP
Settings: concentration: 0.1mM
Summary of the method: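 Crude Jurkat lysate, prepared by Dounce homogenisation, was exposed to eight concentrations from 0.1 to 10 mM for 10 min at room temperature and then 3 min at 37 °C. Solubilisation used 0.8% NP40 with benzonase for 60 min at 4 °C, followed by ultracentrifugation and TMT labelling of the supernatant for LC-MS/MS. After vsn normalisation of intensities, each value is the fold change against the detergent-processed vehicle within each replicate, across three independent experiments.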

| Target | NP40-soluble protein abundance |
| --- | --- |
| UniProt O75379 and related entries | 1.02 ± 0.15 |
| UniProt O95155 and related entries | 1.04 ± 0.07 |
| UniProt O75554 and related entries | 0.998 ± 0.021 |
| SNUPN (UniProt O95149) | 1.02 ± 0.025 |
| UniProt O76095 and related entries | 0.903 ± 0.086 |
| UniProt O95568 and related entries | 0.998 ± 0.1 |
| UniProt O95466-2 | 0.94 ± 0.011 |
| UniProt O60880 and related entries | 0.975 ± 0.037 |
| UniProt O95453 and related entries | 1.05 ± 0.037 |
| UniProt O75845 | 1.09 ± 0.018 |
| UniProt O75935 and related entries | 0.897 ± 0.1 |
| UniProt O95273 and related entries | 0.923 ± 0.095 |
| UniProt O94874 | 0.977 ± 0.02 |
| BRD4 (UniProt O60885) | 1 ± 0.028 |
| UniProt O60749 and related entries | 0.988 ± 0.029 |
| SNRNP200 (UniProt O75643) | 1.04 ± 0.041 |
| UniProt O75475 and related entries | 1 ± 0.045 |
| UniProt O94826 | 0.987 ± 0.037 |
| UniProt O75164 | 1.1 ± 0.038 |
| UniProt O94986 and related entries | 0.9994 ± 0.004 |
| UniProt O75648 and related entries | 1 ± 0.18 |
| RP2 (UniProt O75695) | 1.05 ± 0.053 |
| UniProt O75157 and related entries | 0.989 ± 0.048 |
| PSMG1 (UniProt O95456) | 0.991 ± 0.067 |
| CCNT1 (UniProt O60563) | 0.9946 ± 0.0075 |
| UniProt O75155 and related entries | 0.944 ± 0.015 |

No new results follow: entries from further up.

| Target | NP40-soluble protein abundance |
| --- | --- |
| BRD4 (UniProt O60885) | 1 ± 0.028 |
| UniProt O60749 and related entries | 0.988 ± 0.029 |
